# Test results published in the supplement of paper PMC12067093, “Discovery and optimisation of a covalent ligand for TRIM25 and its application to targeted protein ubiquitination” (Chemical Science, 2025).
# The chains behind the UniProt entries cited, without tags or fusion partners. Where a name states a change or a piece, a line headed by the entry shows the natural chain unless it says otherwise.
# UniProt Q9Y3B9: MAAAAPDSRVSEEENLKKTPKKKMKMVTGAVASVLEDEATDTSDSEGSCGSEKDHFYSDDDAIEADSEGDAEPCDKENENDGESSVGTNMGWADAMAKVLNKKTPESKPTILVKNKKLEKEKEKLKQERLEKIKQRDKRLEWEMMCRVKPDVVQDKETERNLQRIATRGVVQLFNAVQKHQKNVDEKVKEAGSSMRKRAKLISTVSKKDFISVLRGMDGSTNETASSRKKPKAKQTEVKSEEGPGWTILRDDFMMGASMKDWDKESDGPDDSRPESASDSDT
# UniProt Q15418, whole entry, looked up: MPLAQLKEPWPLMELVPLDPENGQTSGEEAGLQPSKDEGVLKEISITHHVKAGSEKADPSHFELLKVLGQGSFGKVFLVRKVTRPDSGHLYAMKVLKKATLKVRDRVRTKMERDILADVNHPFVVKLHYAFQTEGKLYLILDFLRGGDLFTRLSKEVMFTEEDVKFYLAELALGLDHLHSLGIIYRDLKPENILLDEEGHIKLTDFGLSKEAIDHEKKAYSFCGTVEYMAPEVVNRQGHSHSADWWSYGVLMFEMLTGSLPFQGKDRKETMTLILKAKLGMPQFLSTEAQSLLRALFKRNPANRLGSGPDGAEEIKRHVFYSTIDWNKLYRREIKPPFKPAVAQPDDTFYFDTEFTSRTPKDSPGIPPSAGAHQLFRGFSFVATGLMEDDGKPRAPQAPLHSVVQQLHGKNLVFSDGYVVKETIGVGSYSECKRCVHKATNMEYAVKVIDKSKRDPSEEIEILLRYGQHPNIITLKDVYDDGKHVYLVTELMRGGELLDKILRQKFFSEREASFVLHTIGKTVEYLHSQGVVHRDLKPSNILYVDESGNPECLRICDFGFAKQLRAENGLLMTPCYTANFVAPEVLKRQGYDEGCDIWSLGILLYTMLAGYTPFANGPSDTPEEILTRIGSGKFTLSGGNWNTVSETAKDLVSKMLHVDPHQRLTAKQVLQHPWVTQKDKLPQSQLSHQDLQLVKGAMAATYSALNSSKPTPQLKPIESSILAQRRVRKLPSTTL
# UniProt Q86VV8: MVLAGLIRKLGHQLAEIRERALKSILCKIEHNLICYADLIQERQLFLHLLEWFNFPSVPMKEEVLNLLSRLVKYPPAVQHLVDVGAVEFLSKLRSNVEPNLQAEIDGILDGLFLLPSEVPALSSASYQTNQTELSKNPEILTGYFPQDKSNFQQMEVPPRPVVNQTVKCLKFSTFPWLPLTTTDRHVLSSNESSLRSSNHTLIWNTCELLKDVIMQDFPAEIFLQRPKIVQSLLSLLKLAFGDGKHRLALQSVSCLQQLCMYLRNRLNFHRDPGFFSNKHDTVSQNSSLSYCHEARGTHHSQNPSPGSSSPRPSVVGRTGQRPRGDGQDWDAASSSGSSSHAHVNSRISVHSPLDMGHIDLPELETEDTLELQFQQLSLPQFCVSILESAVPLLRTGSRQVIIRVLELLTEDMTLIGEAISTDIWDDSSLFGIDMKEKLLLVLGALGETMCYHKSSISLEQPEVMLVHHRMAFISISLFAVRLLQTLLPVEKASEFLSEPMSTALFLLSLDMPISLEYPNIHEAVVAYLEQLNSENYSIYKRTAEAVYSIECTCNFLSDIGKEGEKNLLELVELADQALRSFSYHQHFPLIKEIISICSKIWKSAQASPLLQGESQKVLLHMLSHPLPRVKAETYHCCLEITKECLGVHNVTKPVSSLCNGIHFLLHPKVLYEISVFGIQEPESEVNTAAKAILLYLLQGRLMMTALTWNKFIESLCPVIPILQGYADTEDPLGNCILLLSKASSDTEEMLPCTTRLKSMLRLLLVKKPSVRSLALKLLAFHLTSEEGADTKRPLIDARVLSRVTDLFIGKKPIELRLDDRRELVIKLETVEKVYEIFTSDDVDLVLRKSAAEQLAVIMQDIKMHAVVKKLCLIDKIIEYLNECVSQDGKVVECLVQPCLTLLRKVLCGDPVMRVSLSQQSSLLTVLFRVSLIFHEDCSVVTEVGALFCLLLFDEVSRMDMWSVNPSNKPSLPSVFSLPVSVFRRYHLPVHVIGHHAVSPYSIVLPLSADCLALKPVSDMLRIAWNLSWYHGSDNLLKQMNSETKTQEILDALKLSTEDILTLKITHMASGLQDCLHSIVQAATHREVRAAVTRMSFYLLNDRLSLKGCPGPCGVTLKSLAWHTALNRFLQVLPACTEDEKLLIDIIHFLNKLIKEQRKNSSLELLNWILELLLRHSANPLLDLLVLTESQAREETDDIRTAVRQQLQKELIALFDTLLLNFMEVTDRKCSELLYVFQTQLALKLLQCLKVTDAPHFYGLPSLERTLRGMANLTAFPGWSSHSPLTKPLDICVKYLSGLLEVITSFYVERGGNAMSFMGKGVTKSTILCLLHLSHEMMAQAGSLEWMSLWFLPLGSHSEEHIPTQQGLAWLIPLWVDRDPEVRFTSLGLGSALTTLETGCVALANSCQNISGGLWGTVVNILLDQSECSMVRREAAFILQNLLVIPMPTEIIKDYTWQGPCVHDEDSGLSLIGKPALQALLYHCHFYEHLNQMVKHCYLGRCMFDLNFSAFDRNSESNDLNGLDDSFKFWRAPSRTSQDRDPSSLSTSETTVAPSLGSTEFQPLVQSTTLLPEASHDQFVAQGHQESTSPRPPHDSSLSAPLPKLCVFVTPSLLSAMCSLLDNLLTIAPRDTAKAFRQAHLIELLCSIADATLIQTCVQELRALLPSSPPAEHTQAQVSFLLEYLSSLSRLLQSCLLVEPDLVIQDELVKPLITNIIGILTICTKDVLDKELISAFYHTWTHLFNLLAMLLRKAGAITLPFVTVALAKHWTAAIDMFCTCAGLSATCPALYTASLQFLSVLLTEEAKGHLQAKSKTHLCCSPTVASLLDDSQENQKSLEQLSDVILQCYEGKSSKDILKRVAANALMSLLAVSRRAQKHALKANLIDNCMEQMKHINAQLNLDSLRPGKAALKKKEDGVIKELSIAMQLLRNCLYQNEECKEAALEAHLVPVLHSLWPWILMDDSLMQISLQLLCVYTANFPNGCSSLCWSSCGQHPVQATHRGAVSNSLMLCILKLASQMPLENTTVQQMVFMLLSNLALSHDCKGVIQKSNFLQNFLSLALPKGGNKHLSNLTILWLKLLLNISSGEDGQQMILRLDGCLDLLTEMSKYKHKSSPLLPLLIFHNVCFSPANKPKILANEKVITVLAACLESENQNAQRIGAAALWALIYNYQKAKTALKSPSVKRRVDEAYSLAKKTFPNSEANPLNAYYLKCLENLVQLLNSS
# UniProt P57060: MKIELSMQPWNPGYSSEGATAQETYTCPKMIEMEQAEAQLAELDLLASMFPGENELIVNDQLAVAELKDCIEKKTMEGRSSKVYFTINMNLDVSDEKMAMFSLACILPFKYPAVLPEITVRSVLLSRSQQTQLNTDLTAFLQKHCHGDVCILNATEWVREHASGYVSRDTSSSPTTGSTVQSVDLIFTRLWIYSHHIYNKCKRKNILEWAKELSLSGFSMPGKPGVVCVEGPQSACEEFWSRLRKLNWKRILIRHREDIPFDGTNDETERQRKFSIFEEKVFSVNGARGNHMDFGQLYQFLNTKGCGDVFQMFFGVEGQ
# UniProt Q96T51: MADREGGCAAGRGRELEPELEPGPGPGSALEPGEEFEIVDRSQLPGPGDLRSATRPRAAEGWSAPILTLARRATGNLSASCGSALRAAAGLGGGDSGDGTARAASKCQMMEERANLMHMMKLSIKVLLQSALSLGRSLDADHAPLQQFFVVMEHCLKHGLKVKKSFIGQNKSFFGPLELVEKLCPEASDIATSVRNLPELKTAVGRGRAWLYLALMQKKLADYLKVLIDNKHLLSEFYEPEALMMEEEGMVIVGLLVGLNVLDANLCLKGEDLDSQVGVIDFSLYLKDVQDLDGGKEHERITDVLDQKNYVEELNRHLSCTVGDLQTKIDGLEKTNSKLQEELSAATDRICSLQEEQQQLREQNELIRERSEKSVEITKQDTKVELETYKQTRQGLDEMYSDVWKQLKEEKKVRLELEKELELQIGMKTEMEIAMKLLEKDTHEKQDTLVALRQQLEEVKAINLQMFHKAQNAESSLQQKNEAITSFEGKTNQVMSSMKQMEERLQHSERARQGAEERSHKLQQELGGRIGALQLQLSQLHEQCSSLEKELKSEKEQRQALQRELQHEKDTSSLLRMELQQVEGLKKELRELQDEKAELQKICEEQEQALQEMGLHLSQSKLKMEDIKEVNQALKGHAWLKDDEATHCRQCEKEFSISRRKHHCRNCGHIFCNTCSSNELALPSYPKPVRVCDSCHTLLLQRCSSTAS
# UniProt P28702: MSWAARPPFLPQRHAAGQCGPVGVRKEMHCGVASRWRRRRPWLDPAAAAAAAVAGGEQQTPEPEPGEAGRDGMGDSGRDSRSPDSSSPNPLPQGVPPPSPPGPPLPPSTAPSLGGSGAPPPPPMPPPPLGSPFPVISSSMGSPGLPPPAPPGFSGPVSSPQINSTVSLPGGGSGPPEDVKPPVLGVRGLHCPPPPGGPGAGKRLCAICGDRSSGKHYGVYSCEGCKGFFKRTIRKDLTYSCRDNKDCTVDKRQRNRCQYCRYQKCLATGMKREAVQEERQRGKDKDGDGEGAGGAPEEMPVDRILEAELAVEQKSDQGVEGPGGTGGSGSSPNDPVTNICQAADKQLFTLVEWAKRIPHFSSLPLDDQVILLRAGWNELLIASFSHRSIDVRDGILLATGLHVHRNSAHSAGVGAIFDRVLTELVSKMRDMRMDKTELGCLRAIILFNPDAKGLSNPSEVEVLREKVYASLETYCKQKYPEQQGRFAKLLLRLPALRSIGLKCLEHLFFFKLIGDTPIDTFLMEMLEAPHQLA
# UniProt P23921: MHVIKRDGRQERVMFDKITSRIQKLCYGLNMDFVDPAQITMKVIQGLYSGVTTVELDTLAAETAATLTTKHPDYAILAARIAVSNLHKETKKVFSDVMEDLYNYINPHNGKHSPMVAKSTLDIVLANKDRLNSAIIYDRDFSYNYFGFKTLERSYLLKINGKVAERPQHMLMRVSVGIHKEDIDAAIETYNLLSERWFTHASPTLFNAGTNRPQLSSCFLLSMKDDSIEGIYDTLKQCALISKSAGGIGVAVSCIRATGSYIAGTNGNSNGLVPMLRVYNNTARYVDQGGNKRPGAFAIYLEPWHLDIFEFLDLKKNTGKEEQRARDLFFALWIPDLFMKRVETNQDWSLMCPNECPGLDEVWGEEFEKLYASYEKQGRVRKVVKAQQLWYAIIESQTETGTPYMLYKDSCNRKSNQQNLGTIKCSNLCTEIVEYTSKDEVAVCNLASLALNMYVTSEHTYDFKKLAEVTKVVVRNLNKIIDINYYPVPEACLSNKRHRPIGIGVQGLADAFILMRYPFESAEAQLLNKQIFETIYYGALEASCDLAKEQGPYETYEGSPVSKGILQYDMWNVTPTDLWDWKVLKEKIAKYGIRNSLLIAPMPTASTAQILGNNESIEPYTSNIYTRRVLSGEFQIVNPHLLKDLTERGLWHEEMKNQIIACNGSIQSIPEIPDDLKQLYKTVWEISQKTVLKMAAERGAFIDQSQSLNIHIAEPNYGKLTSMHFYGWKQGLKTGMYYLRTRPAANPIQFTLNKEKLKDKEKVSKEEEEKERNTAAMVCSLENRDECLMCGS
# UniProt Q9Y3Z3: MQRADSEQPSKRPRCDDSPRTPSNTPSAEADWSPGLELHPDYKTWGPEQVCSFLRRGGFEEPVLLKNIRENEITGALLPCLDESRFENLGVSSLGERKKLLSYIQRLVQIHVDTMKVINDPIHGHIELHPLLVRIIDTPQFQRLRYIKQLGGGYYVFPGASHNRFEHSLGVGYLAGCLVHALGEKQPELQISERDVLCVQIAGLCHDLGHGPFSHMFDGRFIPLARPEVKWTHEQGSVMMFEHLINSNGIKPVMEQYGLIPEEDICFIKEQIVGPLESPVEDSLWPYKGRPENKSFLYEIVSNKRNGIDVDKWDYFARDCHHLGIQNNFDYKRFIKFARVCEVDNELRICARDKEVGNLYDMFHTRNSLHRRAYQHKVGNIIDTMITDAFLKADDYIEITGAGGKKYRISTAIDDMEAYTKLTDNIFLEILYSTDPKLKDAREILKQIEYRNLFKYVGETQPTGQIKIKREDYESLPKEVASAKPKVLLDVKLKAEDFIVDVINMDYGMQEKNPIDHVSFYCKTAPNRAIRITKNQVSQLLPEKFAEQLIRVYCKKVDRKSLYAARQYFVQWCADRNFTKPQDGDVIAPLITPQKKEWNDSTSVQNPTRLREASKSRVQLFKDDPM
# The list shows a part of the results.
# Compound: Cc1cc(ccc1-c1ccccc1)C(=O)N1CCCN(CC1)C(=O)CCl [compound 10]
# Test: probe-labelled cysteine peptide fold change vs DMSO (competition) (log2 fold change); higher = less target engagement (more negative = stronger competition)
# Details: THP-1, incubation time: 4 h
# 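Note: competitive profiling in live THP-1 cells: cysteine peptides tagged with an iodoacetamide desthiobiotin (IA-DTB) probe, intensity after compound treatment relative to DMSO-treated cells.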
Target,probe-labelled cysteine peptide fold change (10 µM),probe-labelled cysteine peptide fold change (50 µM)
RRP15_Q9Y3B9_146_RLEWEMMCR (UniProt Q9Y3B9),0.0405,0.0213
RPS6KA1_Q15418-4_17_DLVPCPR (UniProt Q15418),-0.379,-0.489
RTTN_Q86VV8_2128_SSPLLPLLIFHNVCFSPANKPK (UniProt Q86VV8),-0.219,-0.0186
RPS2_P15880_182_IGKPHTVPCK (UniProt P15880),-0.195,-0.301
RREB1_Q92766_805_NCIHHILK (UniProt Q92766),-0.0192,-0.0174
RWDD2B_P57060_105_MAMFSLACILPFK (UniProt P57060),-0.149,-0.00776
RSF1_Q96T23_562_TALSSTESCTMKGEEK (UniProt Q96T23),-0.442,-0.951
RUFY1_Q96T51_544_IGALQLQLSQLHEQCSSLEK (UniProt Q96T51),0.216,0.0639
RXRB_P28702_241_DLTYSCR (UniProt P28702),-0.0959,-0.31
RRM1_P23921_254_SAGGIGVAVSCIR (UniProt P23921),0.106,0.276
SAMHD1_Q9Y3Z3_15_CDDSPR (UniProt Q9Y3Z3),-0.0354,-0.0447

# Whole records, quoted from the list. Values in the order: probe-labelled cysteine peptide fold change (10 µM) | probe-labelled cysteine peptide fold change (50 µM)
# RXRB_P28702_241_DLTYSCR (UniProt P28702) is listed as -0.0959 | -0.31
# RTTN_Q86VV8_2128_SSPLLPLLIFHNVCFSPANKPK (UniProt Q86VV8) is listed as -0.219 | -0.0186
